Source: PubChem BioAssay AID2685 (National Center for Advancing Translational Sciences (NCATS), 2010)
Some of the results follow. The main result of the screen is listed elsewhere. These columns were measured beside it and carry no call. The list favours compounds with an active or inconclusive main result. Potencies come from curve fits of mixed quality, noted in brackets.

Assay: qHTS Assay for Lipid Storage Modulators in Drosophila S3 Cells;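 for cell number change: cells counted by Cell Tracker Red CMTPX staining in the red channel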
Conditions: BODIPY lipid droplet fluorescence, 18-24 h; for cell number change: measured here: cell count max response, cells fed with added oleic acid
Outline: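 Drosophila S3 cells got compounds at several concentrations plus oleic acid (400 uM solution). Laser-scanning cytometry with 488 nm excitation read lipid droplets at 500-530 nm and cells at 575-640 nm. Percent activity was relative to 20 uM Triacsin C.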

[1] = measured here: cell number channel AC50, cells fed with added oleic acid
[2] = measured here: lipid fluorescence (Fed channel) AC50, cells fed with added oleic acid

Row | SMILES | cell number change [%] | AC50 [1] | AC50 [2]
1 | Nc1c(-c2ccccc2)c(CSc2nc3ccccc3[nH]2)nn1-c1ccc(Cl)cc1 | -50 | 2.06 µM [falling, full curve] | 
2 | CC(C)(C)c1ccc(S(=O)(=O)N2CCCCC2C(=O)NCc2ccccn2)cc1 (stereo not given) |  |  | 0.731 µM [falling, single point]
3 | O=c1c2c(nc3nc(Cc4ccccc4)[nH]n13)CCC2 | 6.2 |  | 
4 | O=C(Cn1c(NCCO)nc2ccccc21)NCC1CCCO1 (stereo not given) | 61.4 | 25.9 µM [rising, partial curve, poor fit] | 0.82 µM [rising, full curve, poor fit]
5 | OC1c2cc(Br)ccc2N=C2CCCN21 (stereo not given) | -2.78 |  | 
6 | O=C(COc1ccc2c(-c3ccccc3)cc(=O)oc2c1)NC1CCS(=O)(=O)C1 (stereo not given) | -6.34 | 0.517 µM [falling, partial curve] | 0.58 µM [falling, partial curve]
7 | CN1CCCN(C(=O)CC(c2ccccc2)c2ccccc2)CC1 | -37.7 | 2.91 µM [falling, single point] | 
8 | COCCN(C(=O)c1ccc(N2C(=O)c3ccccc3C2=O)cc1)c1c(N)n(CC(C)C)c(=O)[nH]c1=O | -31.5 | 16.4 µM [falling, partial curve, poor fit] | 8.2 µM [falling, partial curve]
9 | c1ccc(-c2cc(N3CCCCCC3)n[nH]2)cc1 | 199 | 13 µM [rising, partial curve] | 23.1 µM [rising, single point]
10 | COc1cccc2sc(=NC(=O)CS(=O)(=O)c3ccc(Cl)cc3)n(C)c12 | 113 | 20.6 µM [rising, partial curve] | 
11 | O=C(c1ccc(-c2ccc(Cl)cc2)o1)N1CCN(S(=O)(=O)c2cccs2)CC1 | -21.3 |  | 0.411 µM [falling, full curve, poor fit]
12 | COC(=O)CC/C(O)=C1/C(=N)CC(C)(C)CC1=O | 9.97 |  | 
13 | CCOC(=O)C1CCN(Cc2nc3ccc([N+](=O)[O-])cc3c(=O)n2-c2ccc(OC)cc2OC)CC1 | 17.9 |  | 1.46 µM [rising, partial curve, poor fit]
14 | CCCCn1c(N)c(N(CCOC)C(=O)c2ccc(-c3ccc(Cl)cc3)o2)c(=O)[nH]c1=O | 44.4 | 16.4 µM [rising, partial curve] | 
15 | Cc1cc(Cl)c2oc(C(=O)NCCC3CCCCO3)c(C)c2c1 (stereo not given) | -4.67 |  | 
16 | COc1ccc(/C=C2\CCc3ccccc3C2=O)cc1OC | -30 | 20.6 µM [falling, single point] | 23.1 µM [falling, single point]
17 | COc1cc(-c2nnc(COC(=O)c3nn(CC(C)C)c(=O)c4ccccc34)o2)cc(OC)c1OC |  | 0.13 µM [rising, full curve, poor fit] | 0.731 µM [rising, full curve]
18 | CN(C)c1ccc(CNC(=O)CCNS(=O)(=O)c2cc(Br)cnc2N)cc1 | 23.8 |  | 20.6 µM [rising, partial curve]
19 | COc1ccc(C(=O)c2ccc(OC)cc2O)c(O)c1 | -20.4 |  | 
20 | O=C(CN1CCC(NC(=O)c2cccc(F)c2)CC1)Nc1ccc(Br)cc1 | -19.5 |  | 23.1 µM [falling, single point]
21 | CC1CCN(CCCNC(=O)CCCNC(=O)Cn2cnc3sc4c(c3c2=O)CCCC4)CC1 | 0.594 |  | 
22 | CN(C)c1nc(N(C)C)n(C(=O)c2ccc(F)cc2)n1 | -42.7 | 1.16 µM [falling, full curve, poor fit] | 0.92 µM [falling, full curve, poor fit]
23 | CCn1c(SCC(=O)N/N=C/C=C\c2ccco2)nc2ccccc21 | -20.5 |  | 29.1 µM [falling, single point]
24 | CCCCCC#CCN1CCN(C23CC4CC(CC(C4)C2)C3)CC1 | 9.4 | 6.51 µM [falling, single point] | 18.4 µM [rising, single point]
25 | CC1CC1C(=O)Nc1nc2ccc(S(C)(=O)=O)cc2s1 (stereo not given) | 5.46 |  | 0.146 µM [rising, full curve]
26 | CCN(CC)S(=O)(=O)c1ccc(C(=O)NCc2ccc3[nH]c4c(c3c2)CCCC4)cc1 | -8.93 |  | 0.13 µM [rising, full curve, poor fit]
27 | CCN1CCN(CCC(=O)Nc2ccccc2)CC1 | 15.8 |  | 0.146 µM [rising, full curve, poor fit]
28 | COc1ccc(-c2noc(CCCc3ccccc3)n2)cc1OC | -34.1 | 2.06 µM [falling, partial curve] | 7.31 µM [rising, partial curve]

Row | SMILES | cell number change [%] | AC50 [1] | AC50 [2]
29 | O=S(=O)(c1ccc(-c2ccon2)s1)N1CCN(c2ccccn2)CC1 | -39 | 3.66 µM [falling, full curve] | 6.51 µM [falling, single point]
30 | CCOc1ccc(C(=O)OCc2nnc(-c3cccs3)o2)cc1OC | 36.9 | 1.03 µM [rising, full curve, poor fit] | 1.84 µM [rising, partial curve]
31 | COc1cc(/C=C(\NC(=O)c2ccccc2)C(=O)NCC(=O)O)c([N+](=O)[O-])cc1OC |  | 0.82 µM [rising, single point] | 
32 | O=C(CCN1C(=O)c2ccccc2C1=O)C1=NN[C@@H]2C(=O)N(c3cccc(F)c3)C(=O)[C@H]12 | -45.3 | 36.6 µM [falling, partial curve, poor fit] | 
33 | Cc1ccc2c(c1)C1CN(C)CCC1N2S(=O)(=O)c1cc(C(F)(F)F)ccc1Cl (stereo not given) | -33 | 0.146 µM [falling, full curve, poor fit] | 2.59 µM [rising, single point]
34 | CN1CCN(Cc2cccc(Oc3ccccc3)c2)CC1 | -3.05 |  | 0.82 µM [falling, full curve, poor fit]
35 | C=CCSC1=C(C#N)C(c2ccccc2OCC)C(C#N)C(=O)N1 (stereo not given) | 13.4 |  | 0.164 µM [falling, full curve, poor fit]
36 | Cc1cccc(N2CCN(C(=O)CCNS(=O)(=O)c3ccc4c(c3)oc(=O)n4C)CC2)c1C | -8.57 |  | 29.1 µM [falling, single point]
37 | COc1cc(C(=O)OC(C)CN2CCCC2)cc(OC)c1OC (stereo not given) | -11.2 |  | 
38 | O=C1c2cccnc2C(=O)N1Cc1ccc2c(c1)OCO2 | -12.3 |  | 0.00461 µM [rising, full curve, poor fit]
39 | Cc1ccc(C(C(=O)NC2CCCCC2)N(Cc2ccccc2)C(=O)Cc2c[nH]c3ccccc23)o1 (stereo not given) | -26 | 3.26 µM [rising, partial curve] | 3.66 µM [rising, single point]
40 | COc1ccc(CC(=O)N(C)Cc2ccc(C(C)(C)C)cc2)cc1S(=O)(=O)N1CCOCC1 | 13.5 |  | 29.1 µM [rising, single point]
41 | COc1ccccc1/C=C(/C(=O)OCC(=O)Nc1cc(C)ccc1C)c1ccccc1 | 9.85 |  | 29.1 µM [falling, single point]
42 | Cc1ccc(N2CCN(S(=O)(=O)c3ccc4c(c3)NC(=O)C(C)C(=O)N4)CC2C)cc1 (stereo not given) | 18.4 |  | 29.1 µM [falling, single point]
43 | CC(C)c1ccc(C2CC(c3ccc(Br)cc3)=NN2C(N)=S)cc1 (stereo not given) | 4.17 |  | 2.31 µM [rising, single point]
44 | O=C(NC1CCCCC1)[C@H](O)[C@@H](O)C(=O)NC1CCCCC1 | -22 |  | 
45 | O=C(Nc1cccc(Cl)c1)c1ccc(NC2=NC3CS(=O)(=O)CC3S2)cc1 (stereo not given) | -11.2 |  | 0.411 µM [falling, full curve, poor fit]
46 | Cc1c(C(=O)O)sc(S(=O)(=O)N2CCN(C(=O)CCc3ccccc3)CC2)c1C(=O)O | -98.7 | 9.2 µM [falling, partial curve] | 0.58 µM [falling, single point]
47 | CCCCNC(=O)CSc1nc2ccc(C)cc2[nH]1 |  | 0.00461 µM [rising, full curve, poor fit] | 
48 | Cc1ccc(S(=O)(=O)C2(C(=O)NCc3ccc4c(c3)OCO4)CC2)cc1 | 66.9 | 8.2 µM [rising, partial curve] | 6.51 µM [rising, single point]
49 | COc1ccc(Cl)cc1NC(=O)CN(C)C(=O)c1ccc(COc2ccccc2)cc1 | 39.3 | 0.13 µM [rising, full curve, poor fit] | 16.4 µM [rising, partial curve, poor fit]
50 | COc1ccc(Nc2cnn(-c3nc4ccccc4s3)c(=O)c2Cl)cc1 | -24.7 | 0.146 µM [rising, full curve, poor fit] | 29.1 µM [falling, single point]
51 | COc1ccccc1CNC(=O)CNC(=O)N1CC(=O)Nc2ccccc21 | 23.5 |  | 18.4 µM [falling, single point]
52 | Cc1nc2nc(SCC(=O)N3CCOCC3)nn2c(C)c1Cc1ccccc1 | 13.7 |  | 0.00517 µM [falling, full curve, poor fit]
53 | Cc1ccc(NS(=O)(=O)c2c(C)[nH]c(C)c2C(=O)N2CCCCC2)cc1C | -16.8 |  | 6.51 µM [falling, partial curve]
54 | Cc1ccc(S(=O)(=O)Nc2cccc3cccnc23)cc1 | -13.7 |  | 4.11 µM [falling, full curve]
55 | CC(C)(C)Cc1nnc(NS(=O)(=O)c2ccc([N+](=O)[O-])cc2)s1 | -12.2 |  | 6.51 µM [rising, single point]

2 entries from above in another layout:

| Row | SMILES | cell number change [%] | AC50 [1] | AC50 [2] |
| --- | --- | --- | --- | --- |
| 42 | Cc1ccc(N2CCN(S(=O)(=O)c3ccc4c(c3)NC(=O)C(C)C(=O)N4)CC2C)cc1 (stereo not given) | 18.4 |  | 29.1 µM [falling, single point] |
| 53 | Cc1ccc(NS(=O)(=O)c2c(C)[nH]c(C)c2C(=O)N2CCCCC2)cc1C | -16.8 |  | 6.51 µM [falling, partial curve] |
